Out of some 340,000 compounds screened, about 6,200 (1.8%) were called active. This list was built around the results that the source calls inconclusive (neither active nor inactive); the mix of calls is not that of the screen. Calls follow the shape of the dose curve; as a rule, active = well fitted activation curve with a large enough effect; inconclusive = small, poorly fitted or top-dose-only effect; inactive = no such curve, though single readings can be large or run the other way. Where the call is inconclusive, the potency comes from a doubtful curve fit.
experiment: A quantitative high throughput screen for small molecules that induce DNA re-replication in SW480 colon adenocarcinoma cells.; also: nearly all actives have a fitted effect of over 55% in size; as to re-replication activation: % of control where 0% means no effect; conditions: Hoechst DNA content imaging, 48 h; re-replication activation: at 46.1 µM (top of the series) unless noted
Summary of the method: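 DNA re-replication was detected as more nuclei of elevated Hoechst intensity after 48 hr exposure to compound (23 nL pinned per well of 250 cells).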
Potency is read from the fitted curve at half-maximal effect.

**Q.** Which “re-replication activation” value does the source give for CCCNc1ncc2c(=O)[nH][nH]c(=O)c2n1 here?
**A.** inactive: -7.77%

**Q.** With COc1cccc(Nc2nc3ccccc3nc2-n2nc(C)cc2C)c1 as the compound, how does the Potency read?
**A.** inconclusive: 5.17 µM [activator, partial curve, poor fit]

**Q.** For CC(=O)Nc1ccc(S(=O)(=O)NCCc2ccc(S(N)(=O)=O)cc2)cc1, which “re-replication activation” value is on record?
**A.** inactive: -0.348%

**Q.** Which Potency does the source give for C=C1C(=O)O[C@H]2[C@H]1[C@@H](O)CC(=C)[C@@H]1CC(=O)[C@@H](C)[C@H]21 here?
**A.** active: 4.61 µM

**Q.** With Cc1nc(SCc2nc3cc(Cl)c(F)cc3[nH]2)c2oc3ccccc3c2n1 as the compound, how does the Potency read?
**A.** inconclusive: 16.4 µM [activator, partial curve, poor fit]

**Q.** Which Potency does the source give for Cc1cccn2c(=O)c(/C=C(\C#N)C(=O)NC3CCS(=O)(=O)C3)c(N3CC(C)OC(C)C3)nc12 (configuration not stated) here?
**A.** inconclusive: 0.13 µM [activator, full curve, poor fit]

**Q.** With COc1ccc(O)c(C2=Nc3ccccc3N=C(c3ccccc3)C2)c1 as the compound, how does the Potency read?
**A.** inconclusive: 6.51 µM [activator, single point]

**Q.** For O=C(c1cccc(S(=O)(=O)N2CCCc3ccccc32)c1)N1CCN(c2ccccc2)CC1, which “re-replication activation” value is on record?
**A.** inactive: 21.6%

**Q.** For O=C(NC(C(=O)c1ccccc1)N1CCCCCC1)c1ccco1 (configuration not stated), which “re-replication activation” value is on record?
**A.** inactive: -5.16%

**Q.** For CCN1CCN(CCCNC(=O)C2CCN(c3nnc(-n4c(C)ccc4C)s3)CC2)CC1, which Potency is on record?
**A.** inconclusive: 23.1 µM [activator, partial curve, poor fit]

**Q.** For Cc1cccc(S(=O)(=O)c2c(N)n(/N=C/c3cccnc3)c3nc4ccccc4nc23)c1, which Potency is on record?
**A.** inconclusive: 20.6 µM [activator, single point]

**Q.** For CCn1c(SCc2ccc(C#N)cc2)nnc1-c1ccc(S(=O)(=O)N2CCCCC2)cc1, which “re-replication activation” value is on record?
**A.** inactive: -4.3%

**Q.** For Cc1ccc(NC(=O)c2cnn(-c3ccccc3)c2NC(=O)c2ccco2)cc1, which Potency is on record?
**A.** inconclusive: 29.1 µM [activator, single point]

**Q.** Which Potency does the source give for Cc1ccc2oc(=O)c3cc(C(=O)NCCCN4CCCCCC4)sc3c2c1 here?
**A.** inconclusive: 29.1 µM [activator, single point]

**Q.** With CCOc1ccc(N(CC(=O)Nc2cccc(Cl)c2)S(=O)(=O)c2c(C)noc2C)cc1 as the compound, how does the Potency read?
**A.** inconclusive: 29.1 µM [activator, single point]

**Q.** For COc1ccc(C2=CSC3=C(C(=O)c4cccc(S(=O)(=O)N(C)C)c4)CCN23)cc1, which “re-replication activation” value is on record?
**A.** inactive: -1.46%

**Q.** For COc1cccc(N(C(=O)c2cnccn2)C(C(=O)NC2CCCCC2)c2ccc(Cl)cc2)c1 (configuration not stated), which “re-replication activation” value is on record?
**A.** inactive: 0.26%

**Q.** Which “re-replication activation” value does the source give for Cc1cc(C)n2c(Br)c(CSc3nc4ccccc4o3)nc2n1 here?
**A.** inactive: -5.29%

**Q.** Which Potency does the source give for Cc1occc1-c1nnc(SCC(=O)Nc2nc(-c3ccccc3)cs2)o1 here?
**A.** inconclusive: 29.1 µM [activator, single point]

**Q.** Which Potency does the source give for O=C(/C=C/c1ccco1)NC(=S)Nc1ccc(O)c(-c2nc3ccccc3s2)c1 here?
**A.** inconclusive: 3.66 µM [activator, full curve, poor fit]

**Q.** With COc1ccc2c(c1)C(C)=CC(C)(C)N2C(=O)C(C)N1C(=O)c2ccccc2C1=O (configuration not stated) as the compound, how does the Potency read?
**A.** inconclusive: 23.1 µM [activator, single point]

**Q.** With Oc1ccccc1CNCC12CC3CC(CC(C3)C1)C2 as the compound, how does the Potency read?
**A.** inconclusive: 29.1 µM [activator, partial curve, poor fit]

**Q.** Which Potency does the source give for COc1cc(C(=O)Nc2ccc3ccccc3c2)cc(OC)c1OC here?
**A.** active: 1.3 µM

**Q.** Which Potency does the source give for Cc1ccc(NC(=O)c2oc(=O)c3ccccc3c2-c2ccccc2)c(C)c1 here?
**A.** inconclusive: 18.4 µM [activator, single point]

**Q.** Which Potency does the source give for Cc1nn(-c2ccccc2)c(Cl)c1/C=N/NC(N)=O here?
**A.** inconclusive: 2.31 µM [activator, full curve, poor fit]

**Q.** For O=C(CCNC(=O)OCc1ccccc1)NC1CCCCC1, which “re-replication activation” value is on record?
**A.** inactive: -3.87%

**Q.** Which Potency does the source give for COc1ccc(-c2sc3ccccc3c2-c2ccc(OCCN(C)C)cc2)cc1 here?
**A.** inconclusive: 6.51 µM [activator, single point]

**Q.** Which Potency does the source give for CN(Cc1ccon1)C(=O)CC1C(=O)NCCN1Cc1ccccc1C(F)(F)F (configuration not stated) here?
**A.** inconclusive: 29.1 µM [activator, single point]

**Q.** For Cc1ccc(C)c(C(=O)COc2ccccc2[N+](=O)[O-])c1, which Potency is on record?
**A.** inconclusive: 29.1 µM [activator, single point]

**Q.** Which Potency does the source give for Nc1ccccc1Nc1ccccc1 here?
**A.** inconclusive: 3.66 µM [activator, full curve, poor fit]

**Q.** For Cc1cc(C)nc(Sc2nc(Cl)nc(N(c3ccccc3)c3ccccc3)n2)n1, which Potency is on record?
**A.** inconclusive: 35.5 µM [activator, single point]

**Q.** Which Potency does the source give for CCOC(=O)C1CCN(C(c2ccccn2)c2c(C)[nH]c3ccccc23)CC1 (configuration not stated) here?
**A.** inconclusive: 20.6 µM [activator, single point]

**Q.** For CCOC(=O)c1cc([N+](=O)[O-])c([N+](=O)[O-])cc1NC(C)=O, which Potency is on record?
**A.** inconclusive: 29.1 µM [activator, single point]

**Q.** With COC(=O)C1=CN(Cc2ccc(C)cc2)C=C(C(=O)OC)C1c1ccc(F)c(F)c1 as the compound, how does the Potency read?
**A.** active: 4.61 µM

**Q.** With COc1cccc(-n2cnc3cccc(N)c32)c1 as the compound, how does the Potency read?
**A.** inconclusive: 2.91 µM [activator, partial curve, poor fit]

**Q.** Which “re-replication activation” value does the source give for CC(=O)N1c2ccc(S(=O)(=O)NCC3CCC(C(=O)N4CCC(C)CC4)CC3)cc2CC1C (configuration not stated) here?
**A.** inactive: -2.88%

**Q.** Which Potency does the source give for Clc1ccc(COn2c(-c3ccc(Cl)cc3)nc3ccccc32)cc1 here?
**A.** inconclusive: 32.6 µM [activator, partial curve, poor fit]

**Q.** For CCC(C)c1ccc(N(CC(=O)NC(C)(C)C)C(=O)CNC(=O)c2cccs2)cc1 (configuration not stated), which Potency is on record?
**A.** inconclusive: 10.3 µM [activator, partial curve, poor fit]

**Q.** With CSc1cc(-c2ccc(Cl)cc2)c(C(=O)NC(C)C)s1 as the compound, how does the Potency read?
**A.** inconclusive: 18.4 µM [activator, single point]

**Q.** With COc1ccc(-c2[nH]ncc2CNC(C)c2ccccc2Cl)cc1F (configuration not stated) as the compound, how does the Potency read?
**A.** inconclusive: 29.1 µM [activator, single point]

**Q.** With CC(=O)NS(=O)(=O)c1cccnc1Nc1cccc(Cl)c1C as the compound, how does the Potency read?
**A.** active: 0.517 µM

**Q.** Which “re-replication activation” value does the source give for CCC1(c2ccc(C)cc2)NC(=O)N(C(C)C(=O)Nc2ccc(N3CCOCC3)cc2)C1=O (configuration not stated) here?
**A.** inactive: 0.551%

**Q.** Which Potency does the source give for COc1ccc(CN(CC(=O)NCc2ccc(F)cc2)C(=O)c2csnn2)cc1 here?
**A.** inconclusive: 25.9 µM [activator, single point]

**Q.** With S=C(NCCCc1ccccc1)NC1CCCCC1 as the compound, how does the Potency read?
**A.** inconclusive: 29.1 µM [activator, single point]

**Q.** With COc1ccc(N2CC(C(=O)N3CCOCC3)CC2=O)cc1 (configuration not stated) as the compound, how does the “re-replication activation” value read?
**A.** inactive: -7.69%

**Q.** With O=C(COc1ccccc1)N1CCN(c2ccc([N+](=O)[O-])c(N3CCCCC3)c2)CC1 as the compound, how does the Potency read?
**A.** inconclusive: 18.4 µM [activator, single point]

**Q.** For COc1ccc(-n2nnnc2SCC#CCO)cc1, which Potency is on record?
**A.** inconclusive: 29.1 µM [activator, single point]

**Q.** Which “re-replication activation” value does the source give for C/C(=N\NC(=O)c1csc(C)c1C)c1ccc(Cl)s1 here?
**A.** inactive: -35%

**Q.** With Cc1cc(C)c(S(=O)(=O)N2CCC3(CC2)OCCN3S(=O)(=O)c2cccs2)c(C)c1 as the compound, how does the Potency read?
**A.** inconclusive: 4.11 µM [activator, partial curve, poor fit]

**Q.** For O=C(NC1CCCC1)C(c1ccncc1)N(C(=O)c1ccco1)c1ccccc1 (configuration not stated), which Potency is on record?
**A.** inconclusive: 5.8 µM [activator, full curve, poor fit]

**Q.** For O=S(=O)(Nc1cccc(-n2cnnn2)c1)c1ccc(Cl)cc1, which Potency is on record?
**A.** inconclusive: 2 µM [activator, partial curve, poor fit]

**Q.** With O=C(/C=C/c1c[nH]c2ccccc12)c1ccccc1 as the compound, how does the Potency read?
**A.** active: 18.4 µM

**Q.** With COc1ccc(CNC(=O)C[C@H]2C[C@H](C(=O)N3CCCCC3)[C@@]3(CCc4ccccc4)c4[nH]c5ccc(Cl)cc5c4CCN3C2=O)cc1OC as the compound, how does the Potency read?
**A.** inconclusive: 8.2 µM [activator, partial curve, poor fit]

**Q.** For Cc1ccc(C)c(S(=O)(=O)N2CCCCC2CCNC(=O)C(=O)NCc2ccccc2)c1 (configuration not stated), which Potency is on record?
**A.** inconclusive: 20.6 µM [activator, single point]

**Q.** With COc1cccc2c1C(=O)c1c(O)c3c(c(O)c1C2=O)CC(O)(C(C)=NNC(=O)c1ccc(Cl)c(Cl)c1)CC3OC1CC(N)C(O)C(C)O1 (configuration not stated) as the compound, how does the “re-replication activation” value read?
**A.** inactive: 0.405%

**Q.** With O=S(=O)(Nc1ccon1)c1ccc(Br)cc1 as the compound, how does the Potency read?
**A.** inconclusive: 6.51 µM [activator, partial curve, poor fit]

**Q.** For O=C(CN1CCc2ccccc2C1)Nc1ccccc1N1CCCCCC1, which Potency is on record?
**A.** inconclusive: 25.9 µM [activator, single point]

**Q.** With CC1=CC(C)(C)NC(=S)N1c1cc(C)cc(C)c1 as the compound, how does the “re-replication activation” value read?
**A.** inactive: -1.13%

**Q.** With CC(C)c1ccc(C(=O)NNC(=O)C2CC=CCC2C(=O)O)cc1 (configuration not stated) as the compound, how does the Potency read?
**A.** inconclusive: 16.4 µM [activator, single point]

**Q.** Which re-replication activation does the source give for O=C(CN1C(=O)CCSc2ccccc21)NC1CCCCC1 here?
**A.** inconclusive: 30.2% [activator]

**Q.** Which “re-replication activation” value does the source give for COc1ccccc1NC(=O)CN(c1ccccc1)S(=O)(=O)c1ccccc1 here?
**A.** inactive: 7.99%

**Q.** For CCOc1ccc(C(=O)/C=C/c2cn(CN3CCN(C)CC3)c3ccccc23)cc1, which Potency is on record?
**A.** inconclusive: 20.6 µM [activator, single point]

**Q.** With COc1cccc(N2CCN(C(=O)c3ccc(CS(=O)c4ccccc4C)o3)CC2)c1 (configuration not stated) as the compound, how does the Potency read?
**A.** active: 5.8 µM

**Q.** Which “re-replication activation” value does the source give for O=C(C1COc2ccccc2O1)N1CCN(c2nc3ccc([N+](=O)[O-])cc3s2)CC1 (configuration not stated) here?
**A.** inactive: -62.2%

**Q.** For Oc1ccc2ccccc2c1N=Nc1ccc(F)cc1, which Potency is on record?
**A.** inconclusive: 7.31 µM [activator, partial curve, poor fit]

**Q.** Which Potency does the source give for CCc1c(Nc2ccccc2Cl)nc(N)[nH]c1=O here?
**A.** inconclusive: 29.1 µM [activator, single point]

**Q.** For CCCN1CCN(CCCNC(=O)CN2C(=O)C(CC)Oc3ccccc32)CC1 (configuration not stated), which Potency is on record?
**A.** inconclusive: 2.31 µM [activator, partial curve, poor fit]
